# From the supplement of paper PMC8728848
# The list shows a part of the results.
# B1: Eosinophil-derived neurotoxin (EDN) (Homo sapiens), P10153 (protein)
# chain: MVPKLFTSQICLLLLLGLLAVEGSLHVKPPQFTWAQWFETQHINMTSQQCTNAMQVINNYQRRCKNQNTFLLTTFANVVNVCGNPNMTCPSNKTRKNCHHSGSQVPLIHCNLTTPSPQNISNCRYAQTPANMFYIVACDNRDQRRDPPQYPVVPVHLDRII
# What was measured:
# Test in all cases: glycan array binding signal (z-score within array); higher = stronger binding
# Settings in all cases: glycan notation: IUPAC condensed, linker removed
# [1] = target: Fuc(a1-3)[Gal(b1-4)]GlcNAc(b1-2)Man(a1-3)[Fuc(a1-3)[Gal(b1-4)]GlcNAc(b1-2)Man(a1-6)]Man(b1-4)GlcNAc(b1-4)[Fuc(a1-6)]GlcNAc
# Summary of the method: (§1)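 The Consortium for Functional Glycomics database supplied 3228 glycan arrays, of which those lacking an available protein sequence were dropped. The binding signal, a within-array Z-score, was averaged across arrays of the same protein sequence and across linkers. Negative scores can be read as non-binding.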
# [2] = target: Fuc(a1-3)[Gal(b1-4)]GlcNAc(b1-3)Gal(b1-3)[Fuc(a1-4)]GlcNAc
# Summary of the method: as §1
# [3] = target: Fuc(a1-3)[Gal(b1-4)]GlcNAc(b1-3)GalNAc
# Summary of the method: as §1
# [4] = target: Fuc(a1-3)[Gal(b1-4)]GlcNAc(b1-4)Gal(b1-4)[Fuc(a1-3)]GlcNAc
# Summary of the method: as §1
# [5] = target: Fuc(a1-3)[Gal(b1-4)]GlcNAc(b1-4)Gal(b1-4)[Fuc(a1-3)]GlcNAc(b1-4)Gal(b1-4)[Fuc(a1-3)]GlcNAc
# Summary of the method: as §1
# [6] = target: Fuc(a1-3)[Gal(b1-4)]GlcNAc(b1-6)GalNAc
# Summary of the method: as §1
# [7] = target: Fuc(a1-3)[Gal(b1-4)]GlcNAc(b1-6)[Gal(b1-3)GlcNAc(b1-3)]Gal(b1-4)Glc
# Summary of the method: as §1
# [8] = target: Fuc(a1-3)[Gal(b1-4)]GlcNAc(b1-6)[Neu5Ac(a2-3)Gal(b1-3)]GalNAc
# Summary of the method: as §1
# [9] = target: Fuc(a1-3)[Gal(b1-4)]GlcNAc6S
# Summary of the method: as §1
# [10] = target: Fuc(a1-3)[Gal3S(b1-4)]GlcNAc
# Summary of the method: as §1
# [11] = target: Fuc(a1-3)[Gal3S(b1-4)]GlcNAc6S
# Summary of the method: as §1
# [12] = target: Fuc(a1-3)[GalNAc(b1-4)]GlcNAc
# Summary of the method: as §1
# Fuc(a1-4)GlcNAc = target: Fuc(a1-4)GlcNAc
# Summary of the method: as §1
# Fuc(b1-3)GlcNAc = target: Fuc(b1-3)GlcNAc
# Summary of the method: as §1
# Gal(a1-2)Gal = target: Gal(a1-2)Gal
# Summary of the method: as §1
# Gal(a1-3)Gal = target: Gal(a1-3)Gal
# Summary of the method: as §1
# Gal(a1-3)Gal(b1-3)GlcNAc = target: Gal(a1-3)Gal(b1-3)GlcNAc
# Summary of the method: as §1
# [13] = target: Gal(a1-3)Gal(b1-3)GlcNAc(b1-2)Man(a1-3)[Gal(a1-3)Gal(b1-3)GlcNAc(b1-2)Man(a1-6)]Man(b1-4)GlcNAc(b1-4)GlcNAc
# Summary of the method: as §1
# [14] = target: Gal(a1-3)Gal(b1-3)GlcNAc(b1-3)GalNAc
# Summary of the method: as §1
# [15] = target: Gal(a1-3)Gal(b1-3)[Fuc(a1-4)]GlcNAc(b1-2)Man(a1-3)[Gal(a1-3)Gal(b1-3)[Fuc(a1-4)]GlcNAc(b1-2)Man(a1-6)]Man(b1-4)GlcNAc(b1-4)GlcNAc
# Summary of the method: as §1
# Gal(a1-3)Gal(b1-4)Glc = target: Gal(a1-3)Gal(b1-4)Glc
# Summary of the method: as §1
# Gal(a1-3)Gal(b1-4)GlcNAc = target: Gal(a1-3)Gal(b1-4)GlcNAc
# Summary of the method: as §1
# [16] = target: Gal(a1-3)Gal(b1-4)GlcNAc(b1-3)GalNAc
# Summary of the method: as §1
# [17] = target: Gal(a1-3)Gal(b1-4)[Fuc(a1-3)]GlcNAc
# Summary of the method: as §1
# [18] = target: Gal(a1-3)Gal(b1-4)[Fuc(a1-3)]GlcNAc(b1-2)Man(a1-3)[Gal(a1-3)Gal(b1-4)[Fuc(a1-3)]GlcNAc(b1-2)Man(a1-6)]Man(b1-4)GlcNAc(b1-4)GlcNAc
# Summary of the method: as §1
# Gal(a1-3)GalNAc = target: Gal(a1-3)GalNAc
# Summary of the method: as §1
# [19] = target: Gal(a1-3)[Gal(a1-4)]Gal(b1-4)GlcNAc
# Summary of the method: as §1
# [20] = target: Gal(a1-4)Gal(b1-3)GlcNAc(b1-2)Man(a1-3)[Gal(a1-4)Gal(b1-3)GlcNAc(b1-2)Man(a1-6)]Man(b1-4)GlcNAc(b1-4)GlcNAc
# Summary of the method: as §1
# Gal(a1-4)Gal(b1-4)Glc = target: Gal(a1-4)Gal(b1-4)Glc
# Summary of the method: as §1
# Gal(a1-4)Gal(b1-4)GlcNAc = target: Gal(a1-4)Gal(b1-4)GlcNAc
# Summary of the method: as §1
# [21] = target: Gal(a1-4)Gal(b1-4)GlcNAc(b1-2)Man(a1-3)[Gal(a1-4)Gal(b1-4)GlcNAc(b1-2)Man(a1-6)]Man(b1-4)GlcNAc(b1-4)GlcNAc
# Summary of the method: as §1
# [22] = target: Gal(a1-4)Gal(b1-4)GlcNAc(b1-3)Gal(b1-4)Glc
# Summary of the method: as §1
# Gal(a1-4)GlcNAc = target: Gal(a1-4)GlcNAc
# Summary of the method: as §1
# Gal(a1-6)Glc = target: Gal(a1-6)Glc
# Summary of the method: as §1
# Gal(b1-2)Gal = target: Gal(b1-2)Gal
# Summary of the method: as §1
# Gal(b1-3)Gal = target: Gal(b1-3)Gal
# Summary of the method: as §1
# Gal(b1-3)Gal(b1-4)GlcNAc = target: Gal(b1-3)Gal(b1-4)GlcNAc
# Summary of the method: as §1
binder,measurement,setting,value
B1,glycan array binding signal (z-score),[1],-0.265
same,glycan array binding signal (z-score),[2],0.062
same,glycan array binding signal (z-score),[3],0.511
same,glycan array binding signal (z-score),[4],-0.868
same,glycan array binding signal (z-score),[5],-0.17
same,glycan array binding signal (z-score),[6],-0.97
same,glycan array binding signal (z-score),[7],-0.086
same,glycan array binding signal (z-score),[8],0.247
same,glycan array binding signal (z-score),[9],0.272
same,glycan array binding signal (z-score),[10],0.4
same,glycan array binding signal (z-score),[11],-0.212
same,glycan array binding signal (z-score),[12],0.494
same,glycan array binding signal (z-score),Fuc(a1-4)GlcNAc,-0.114
same,glycan array binding signal (z-score),Fuc(b1-3)GlcNAc,-0.332
same,glycan array binding signal (z-score),Gal(a1-2)Gal,-0.368
same,glycan array binding signal (z-score),Gal(a1-3)Gal,-0.363
same,glycan array binding signal (z-score),Gal(a1-3)Gal(b1-3)GlcNAc,0.312
same,glycan array binding signal (z-score),[13],0.922
same,glycan array binding signal (z-score),[14],-0.267
same,glycan array binding signal (z-score),[15],-0.711
same,glycan array binding signal (z-score),Gal(a1-3)Gal(b1-4)Glc,0.4
same,glycan array binding signal (z-score),Gal(a1-3)Gal(b1-4)GlcNAc,0.494
same,glycan array binding signal (z-score),[16],0.141
same,glycan array binding signal (z-score),[17],-0.513
same,glycan array binding signal (z-score),[18],0.387
same,glycan array binding signal (z-score),Gal(a1-3)GalNAc,-0.593
same,glycan array binding signal (z-score),[19],-0.648
same,glycan array binding signal (z-score),[20],-0.75
same,glycan array binding signal (z-score),Gal(a1-4)Gal(b1-4)Glc,-0.014
same,glycan array binding signal (z-score),Gal(a1-4)Gal(b1-4)GlcNAc,0.051
same,glycan array binding signal (z-score),[21],-0.002
same,glycan array binding signal (z-score),[22],-0.652
same,glycan array binding signal (z-score),Gal(a1-4)GlcNAc,-0.369
same,glycan array binding signal (z-score),Gal(a1-6)Glc,-0.225
same,glycan array binding signal (z-score),Gal(b1-2)Gal,0.489
same,glycan array binding signal (z-score),Gal(b1-3)Gal,-0.224
same,glycan array binding signal (z-score),Gal(b1-3)Gal(b1-4)GlcNAc,-0.796

# Another view of part of the listing above.
binder	measurement	setting	value
B1	glycan array binding signal (z-score)	[5]	-0.17
same	glycan array binding signal (z-score)	[6]	-0.97
same	glycan array binding signal (z-score)	[7]	-0.086
same	glycan array binding signal (z-score)	[8]	0.247
same	glycan array binding signal (z-score)	[9]	0.272
same	glycan array binding signal (z-score)	[10]	0.4
same	glycan array binding signal (z-score)	[11]	-0.212
same	glycan array binding signal (z-score)	[12]	0.494
same	glycan array binding signal (z-score)	Fuc(a1-4)GlcNAc	-0.114
same	glycan array binding signal (z-score)	Fuc(b1-3)GlcNAc	-0.332
